# Results as given in the supplement of paper PMC8728848.
# This is one part of the list.
# B1: PX9961KLbvu-535-38-535 (Bacteroides vulgatus) (protein)
# chain: DKAYTDAESYTKGLHKIYSVWALSGQDGSSSSDISGLDAGNTALLRCWWTLQEQPTDEMKNAWNDAWCTEVNYMTWTTNKVEPIEGVYQRCMYIVALVNEFLKNIPNAPESIDKESYIAQARFNRAFAYYVLMDMFALPPFITEKNYSIEPAPLSREDLFNWIEAELNEIKPNLPSPRSEYGVADQAVASALLARMYLNAEIYTGKARYTECINACNEVIKAGYQLADNYADLFKADNGENPDTKKEIIYPIIFDGDKTQSWGMAAIIIGARGAEDKDVLLAHSGVDQGWAGFRATSNLVHLFDFQNDEEPKASEIQDKRGIFYDKGRSIDITSSVSGTFETEGWSVFKFSNLNSNGQPGKNTLWVDTDFPMFRLGDIYLMYAEAVARGGEGSKASAVEYINALRKRAYGDDKHNISENWLEENNFRNLLDERGRELYWEGIRRTDLVRFDLLTSGSYTWDFKGGINTGVGVNKRYNVYPIPVTDLTVNGNLQQNEGY
# Tests used:
# Assay in all cases: glycan array binding signal (z-score within array); higher = stronger binding
# Conditions in all cases: glycan notation: IUPAC condensed, linker removed
# [1] = target: GlcNAc(b1-2)Gal(b1-3)GalNAc
# How it was run: (§1)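 The binding signal is a Z-score computed within each array. Data were drawn from 3228 arrays in the Consortium for Functional Glycomics database, restricted to those with a known protein sequence. Scores were averaged over arrays of the same protein sequence at different concentrations or buffers, and over linkers, and negative values can be taken as non-binding.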
# [2] = target: GlcNAc(b1-2)Man(a1-3)[GlcNAc(b1-2)Man(a1-6)]Man(b1-4)GlcNAc(b1-4)GlcNAc
# How it was run: as §1
# [3] = target: GlcNAc(b1-2)Man(a1-3)[GlcNAc(b1-2)Man(a1-6)]Man(b1-4)GlcNAc(b1-4)[Fuc(a1-6)]GlcNAc
# How it was run: as §1
# [4] = target: GlcNAc(b1-2)Man(a1-3)[GlcNAc(b1-4)][GlcNAc(b1-2)Man(a1-6)]Man(b1-4)GlcNAc(b1-4)GlcNAc
# How it was run: as §1
# [5] = target: GlcNAc(b1-2)Man(a1-3)[GlcNAc(b1-4)][GlcNAc(b1-2)Man(a1-6)]Man(b1-4)GlcNAc(b1-4)[Fuc(a1-6)]GlcNAc
# How it was run: as §1
# [6] = target: GlcNAc(b1-2)[GlcNAc(b1-4)]Man(a1-3)[GlcNAc(b1-2)Man(a1-6)]Man(b1-4)GlcNAc(b1-4)GlcNAc
# How it was run: as §1
# [7] = target: GlcNAc(b1-2)[GlcNAc(b1-4)]Man(a1-3)[GlcNAc(b1-4)][GlcNAc(b1-2)Man(a1-6)]Man(b1-4)GlcNAc(b1-4)GlcNAc
# How it was run: as §1
# [8] = target: GlcNAc(b1-2)[GlcNAc(b1-4)]Man(a1-3)[GlcNAc(b1-4)][GlcNAc(b1-2)[GlcNAc(b1-6)]Man(a1-6)]Man(b1-4)GlcNAc(b1-4)GlcNAc
# How it was run: as §1
# [9] = target: GlcNAc(b1-2)[GlcNAc(b1-4)]Man(a1-3)[GlcNAc(b1-4)][GlcNAc(b1-2)[GlcNAc(b1-6)]Man(a1-6)]Man(b1-4)GlcNAc(b1-4)[Fuc(a1-6)]GlcNAc
# How it was run: as §1
# [10] = target: GlcNAc(b1-2)[GlcNAc(b1-6)]Man(a1-6)[GlcNAc(b1-2)Man(a1-3)]Man(b1-4)GlcNAc(b1-4)GlcNAc
# How it was run: as §1
# [11] = target: GlcNAc(b1-2)[GlcNAc(b1-6)]Man(a1-6)[GlcNAc(b1-2)Man(a1-3)]Man(b1-4)GlcNAc(b1-4)[Fuc(a1-6)]GlcNAc
# How it was run: as §1
# [12] = target: GlcNAc(b1-2)[GlcNAc(b1-6)]Man(a1-6)[GlcNAc(b1-4)][GlcNAc(b1-2)Man(a1-3)]Man(b1-4)GlcNAc(b1-4)GlcNAc
# How it was run: as §1
# GlcNAc(b1-3)Fuc = target: GlcNAc(b1-3)Fuc
# How it was run: as §1
# GlcNAc(b1-3)Gal = target: GlcNAc(b1-3)Gal
# How it was run: as §1
# [13] = target: GlcNAc(b1-3)Gal(b1-3)GalNAc
# How it was run: as §1
# GlcNAc(b1-3)Gal(b1-4)Glc = target: GlcNAc(b1-3)Gal(b1-4)Glc
# How it was run: as §1
# [14] = target: GlcNAc(b1-3)Gal(b1-4)GlcNAc
# How it was run: as §1
# [15] = target: GlcNAc(b1-3)Gal(b1-4)GlcNAc(b1-2)Man(a1-3)[GlcNAc(b1-3)Gal(b1-4)GlcNAc(b1-2)Man(a1-6)]Man(b1-4)GlcNAc(b1-4)GlcNAc
# How it was run: as §1
# [16] = target: GlcNAc(b1-3)Gal(b1-4)GlcNAc(b1-2)Man(a1-3)[GlcNAc(b1-3)Gal(b1-4)GlcNAc(b1-2)Man(a1-6)]Man(b1-4)GlcNAc(b1-4)[Fuc(a1-6)]GlcNAc
# How it was run: as §1
# [17] = target: GlcNAc(b1-3)Gal(b1-4)GlcNAc(b1-2)[GlcNAc(b1-3)Gal(b1-4)GlcNAc(b1-6)]Man(a1-6)[GlcNAc(b1-3)Gal(b1-4)GlcNAc(b1-2)Man(a1-3)]Man(b1-4)GlcNAc(b1-4)GlcNAc
# How it was run: as §1
# [18] = target: GlcNAc(b1-3)Gal(b1-4)GlcNAc(b1-3)Gal(b1-4)GlcNAc
# How it was run: as §1
# [19] = target: GlcNAc(b1-3)Gal(b1-4)GlcNAc(b1-3)Gal(b1-4)GlcNAc(b1-2)Man(a1-3)[GlcNAc(b1-3)Gal(b1-4)GlcNAc(b1-3)Gal(b1-4)GlcNAc(b1-2)Man(a1-6)]Man(b1-4)GlcNAc(b1-4)GlcNAc
# How it was run: as §1
binder,measurement,setting,value
B1,glycan array binding signal (z-score),[1],0.183
same,glycan array binding signal (z-score),[2],-0.632
same,glycan array binding signal (z-score),[3],0.278
same,glycan array binding signal (z-score),[4],0.119
same,glycan array binding signal (z-score),[5],-0.856
same,glycan array binding signal (z-score),[6],-0.164
same,glycan array binding signal (z-score),[7],1.4
same,glycan array binding signal (z-score),[8],-0.497
same,glycan array binding signal (z-score),[9],-0.276
same,glycan array binding signal (z-score),[10],0.491
same,glycan array binding signal (z-score),[11],0.105
same,glycan array binding signal (z-score),[12],0.023
same,glycan array binding signal (z-score),GlcNAc(b1-3)Fuc,-0.224
same,glycan array binding signal (z-score),GlcNAc(b1-3)Gal,0.036
same,glycan array binding signal (z-score),[13],0.447
same,glycan array binding signal (z-score),GlcNAc(b1-3)Gal(b1-4)Glc,0.444
same,glycan array binding signal (z-score),[14],-0.114
same,glycan array binding signal (z-score),[15],0.117
same,glycan array binding signal (z-score),[16],1.08
same,glycan array binding signal (z-score),[17],0.052
same,glycan array binding signal (z-score),[18],0.712
same,glycan array binding signal (z-score),[19],0.747

# Given bar-delimited: part of the list above
binder | measurement | setting | value
B1 | glycan array binding signal (z-score) | [13] | 0.447
same | glycan array binding signal (z-score) | GlcNAc(b1-3)Gal(b1-4)Glc | 0.444
